Laboratory results taken from the supplement of paper PMC10849652.
The list shows a part of the results.

The chains behind the UniProt entries cited, without tags or fusion partners. Where a name states a change or a piece, a line headed by the entry shows the natural chain unless it says otherwise.
UniProt P26038, whole entry, looked up: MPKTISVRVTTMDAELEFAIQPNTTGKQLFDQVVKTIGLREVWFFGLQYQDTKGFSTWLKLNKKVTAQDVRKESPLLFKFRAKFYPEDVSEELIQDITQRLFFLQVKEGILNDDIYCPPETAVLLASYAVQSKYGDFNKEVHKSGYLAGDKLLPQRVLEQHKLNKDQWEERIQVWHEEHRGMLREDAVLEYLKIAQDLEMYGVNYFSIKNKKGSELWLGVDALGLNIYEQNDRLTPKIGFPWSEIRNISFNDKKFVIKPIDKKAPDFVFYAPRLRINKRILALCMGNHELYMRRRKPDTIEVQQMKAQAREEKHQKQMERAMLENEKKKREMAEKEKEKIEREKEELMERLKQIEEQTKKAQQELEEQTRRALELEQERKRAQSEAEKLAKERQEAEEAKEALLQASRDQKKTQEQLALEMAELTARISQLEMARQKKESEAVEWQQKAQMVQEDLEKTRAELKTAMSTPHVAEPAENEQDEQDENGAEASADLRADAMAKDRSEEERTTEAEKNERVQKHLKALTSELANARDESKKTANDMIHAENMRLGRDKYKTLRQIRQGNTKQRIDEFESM
UniProt Q13330: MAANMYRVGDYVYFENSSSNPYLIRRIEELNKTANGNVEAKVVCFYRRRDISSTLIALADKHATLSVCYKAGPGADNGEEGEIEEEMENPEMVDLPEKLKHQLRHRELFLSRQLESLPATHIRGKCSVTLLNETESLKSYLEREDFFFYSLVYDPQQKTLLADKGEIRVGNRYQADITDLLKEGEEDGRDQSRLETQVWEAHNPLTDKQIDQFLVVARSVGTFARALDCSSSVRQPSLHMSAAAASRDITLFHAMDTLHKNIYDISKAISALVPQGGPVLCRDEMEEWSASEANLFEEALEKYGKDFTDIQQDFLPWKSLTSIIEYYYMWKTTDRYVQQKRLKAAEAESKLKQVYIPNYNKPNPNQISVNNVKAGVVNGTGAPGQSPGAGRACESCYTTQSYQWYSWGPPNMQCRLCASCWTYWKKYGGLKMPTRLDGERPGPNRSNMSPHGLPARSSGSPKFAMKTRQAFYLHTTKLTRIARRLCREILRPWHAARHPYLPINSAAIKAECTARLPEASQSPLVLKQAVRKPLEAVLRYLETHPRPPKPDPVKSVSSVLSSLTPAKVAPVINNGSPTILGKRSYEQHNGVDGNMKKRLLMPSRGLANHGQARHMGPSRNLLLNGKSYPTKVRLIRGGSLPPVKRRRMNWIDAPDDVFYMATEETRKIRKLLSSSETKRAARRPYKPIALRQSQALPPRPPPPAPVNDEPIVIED
UniProt P82909: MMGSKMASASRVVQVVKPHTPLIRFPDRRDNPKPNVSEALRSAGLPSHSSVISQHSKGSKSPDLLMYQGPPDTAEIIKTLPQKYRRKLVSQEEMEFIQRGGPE
UniProt Q96DH6: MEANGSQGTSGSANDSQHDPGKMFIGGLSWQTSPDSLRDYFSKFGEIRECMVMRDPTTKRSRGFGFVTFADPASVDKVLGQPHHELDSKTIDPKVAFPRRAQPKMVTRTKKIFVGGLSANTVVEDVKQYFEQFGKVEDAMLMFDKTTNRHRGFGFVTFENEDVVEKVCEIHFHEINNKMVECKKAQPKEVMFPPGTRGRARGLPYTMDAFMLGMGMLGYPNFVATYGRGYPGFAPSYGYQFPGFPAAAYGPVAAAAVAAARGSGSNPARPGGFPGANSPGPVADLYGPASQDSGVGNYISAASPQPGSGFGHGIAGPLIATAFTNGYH
UniProt P43246, whole entry, looked up: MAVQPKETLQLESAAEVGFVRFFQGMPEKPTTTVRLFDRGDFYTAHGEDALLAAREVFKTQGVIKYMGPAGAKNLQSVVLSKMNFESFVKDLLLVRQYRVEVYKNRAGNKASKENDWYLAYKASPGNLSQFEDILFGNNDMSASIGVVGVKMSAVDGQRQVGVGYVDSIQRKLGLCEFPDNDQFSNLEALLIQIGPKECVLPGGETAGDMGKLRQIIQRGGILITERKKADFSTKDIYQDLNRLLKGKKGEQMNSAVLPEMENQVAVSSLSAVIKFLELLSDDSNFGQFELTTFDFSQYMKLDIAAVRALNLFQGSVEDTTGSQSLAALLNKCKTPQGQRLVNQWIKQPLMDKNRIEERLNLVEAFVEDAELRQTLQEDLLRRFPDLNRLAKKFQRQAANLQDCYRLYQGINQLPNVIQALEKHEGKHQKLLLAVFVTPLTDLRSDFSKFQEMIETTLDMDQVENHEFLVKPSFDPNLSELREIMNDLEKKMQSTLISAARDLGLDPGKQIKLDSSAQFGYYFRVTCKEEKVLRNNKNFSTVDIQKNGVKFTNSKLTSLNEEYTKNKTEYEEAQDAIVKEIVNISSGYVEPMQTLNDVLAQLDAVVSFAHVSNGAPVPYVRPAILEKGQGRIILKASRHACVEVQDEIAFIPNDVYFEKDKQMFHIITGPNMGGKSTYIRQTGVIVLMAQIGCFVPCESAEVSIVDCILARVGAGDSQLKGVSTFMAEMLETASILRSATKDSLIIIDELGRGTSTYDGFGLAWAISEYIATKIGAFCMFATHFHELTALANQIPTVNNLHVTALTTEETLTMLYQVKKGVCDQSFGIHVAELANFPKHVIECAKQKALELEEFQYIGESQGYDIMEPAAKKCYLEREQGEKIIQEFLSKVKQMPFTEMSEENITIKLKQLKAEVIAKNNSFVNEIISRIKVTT
UniProt P03915, whole entry, looked up: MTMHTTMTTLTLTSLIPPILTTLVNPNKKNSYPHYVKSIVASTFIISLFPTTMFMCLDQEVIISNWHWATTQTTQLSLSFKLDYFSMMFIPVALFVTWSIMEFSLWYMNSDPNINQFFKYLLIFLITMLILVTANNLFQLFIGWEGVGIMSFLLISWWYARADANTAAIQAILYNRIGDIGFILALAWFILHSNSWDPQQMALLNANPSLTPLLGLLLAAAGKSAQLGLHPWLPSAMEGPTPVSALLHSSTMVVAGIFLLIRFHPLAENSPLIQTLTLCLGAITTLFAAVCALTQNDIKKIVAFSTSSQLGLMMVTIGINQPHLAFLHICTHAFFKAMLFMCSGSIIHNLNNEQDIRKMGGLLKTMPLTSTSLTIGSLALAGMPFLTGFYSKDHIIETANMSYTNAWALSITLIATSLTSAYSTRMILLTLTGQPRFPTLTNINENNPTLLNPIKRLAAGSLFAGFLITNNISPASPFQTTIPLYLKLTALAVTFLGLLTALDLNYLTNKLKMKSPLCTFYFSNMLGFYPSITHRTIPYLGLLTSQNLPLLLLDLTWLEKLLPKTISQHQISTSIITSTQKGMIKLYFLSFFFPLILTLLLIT
UniProt Q9NZJ7, whole entry, looked up: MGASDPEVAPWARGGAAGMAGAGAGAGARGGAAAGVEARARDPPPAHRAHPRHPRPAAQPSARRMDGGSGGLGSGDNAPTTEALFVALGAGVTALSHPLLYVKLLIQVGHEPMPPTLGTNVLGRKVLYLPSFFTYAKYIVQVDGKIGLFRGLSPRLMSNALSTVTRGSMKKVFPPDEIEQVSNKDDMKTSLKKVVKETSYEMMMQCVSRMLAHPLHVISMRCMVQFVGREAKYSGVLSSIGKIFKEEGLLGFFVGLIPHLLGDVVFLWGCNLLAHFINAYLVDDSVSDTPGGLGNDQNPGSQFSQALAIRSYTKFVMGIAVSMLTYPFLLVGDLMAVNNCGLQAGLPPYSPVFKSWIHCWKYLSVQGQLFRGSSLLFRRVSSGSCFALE
UniProt Q9Y6C9: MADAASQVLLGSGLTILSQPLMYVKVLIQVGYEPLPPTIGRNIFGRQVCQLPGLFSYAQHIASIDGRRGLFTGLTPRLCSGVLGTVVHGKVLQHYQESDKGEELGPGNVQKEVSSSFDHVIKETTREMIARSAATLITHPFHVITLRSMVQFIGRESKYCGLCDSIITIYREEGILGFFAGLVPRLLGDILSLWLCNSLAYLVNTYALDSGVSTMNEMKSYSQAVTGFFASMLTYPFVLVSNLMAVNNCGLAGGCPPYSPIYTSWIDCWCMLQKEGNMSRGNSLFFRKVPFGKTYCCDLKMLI
UniProt Q9HD23: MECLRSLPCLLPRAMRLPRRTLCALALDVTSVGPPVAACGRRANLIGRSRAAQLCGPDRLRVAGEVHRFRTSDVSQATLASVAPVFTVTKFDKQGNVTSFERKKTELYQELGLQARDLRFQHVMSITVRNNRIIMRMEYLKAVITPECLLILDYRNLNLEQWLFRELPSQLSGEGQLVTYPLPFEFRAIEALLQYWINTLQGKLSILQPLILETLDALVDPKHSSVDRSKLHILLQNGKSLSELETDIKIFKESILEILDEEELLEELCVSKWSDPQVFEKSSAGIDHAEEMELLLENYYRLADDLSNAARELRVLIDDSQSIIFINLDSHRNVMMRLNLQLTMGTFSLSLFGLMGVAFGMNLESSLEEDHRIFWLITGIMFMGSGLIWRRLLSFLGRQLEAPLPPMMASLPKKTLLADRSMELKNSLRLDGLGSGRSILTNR
UniProt Q2M296: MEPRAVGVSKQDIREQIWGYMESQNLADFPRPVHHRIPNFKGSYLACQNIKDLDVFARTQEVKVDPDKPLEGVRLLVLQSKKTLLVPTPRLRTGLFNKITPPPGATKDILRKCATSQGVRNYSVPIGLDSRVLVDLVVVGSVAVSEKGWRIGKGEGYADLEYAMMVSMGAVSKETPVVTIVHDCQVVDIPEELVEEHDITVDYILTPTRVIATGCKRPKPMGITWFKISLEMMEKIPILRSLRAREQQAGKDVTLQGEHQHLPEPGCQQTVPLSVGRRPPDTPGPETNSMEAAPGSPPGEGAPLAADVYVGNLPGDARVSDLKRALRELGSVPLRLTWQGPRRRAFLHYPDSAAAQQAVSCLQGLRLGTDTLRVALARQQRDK

Tests used:
Experiment in all cases: log2 fold change, soluble protein after heating vs DMSO (PISA); higher = thermal stabilisation; K562 lysate, 10 uM; active = over 0.2 and 3.5 SD of the protein, either way, in both replicates (recomputed)
erlotinib = compound: C#Cc1cccc(Nc2ncnc3cc(OCCOC)c(OCCOC)cc23)c1 [erlotinib]
How it was run: (§1)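 To prepare the extract, K562 pellets were dounce-homogenised in PBS pH 7.4 with 1 mM MgCl2, giving crude material at 1 mg/mL protein. This was treated with 10 μM compound for 30 min, then heated in aliquots for 3 min over 48°C-58°C before pooling and addition of NP-40 to 0.5% at 4°C. Centrifugation at 21,000xg for 90 min left soluble protein in the supernatant, which TMTpro 16plex LC-MS/MS quantified with equalised channel sums. Results are log-two fold changes in thermal stability compared with solvent controls, from duplicates.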

[1] = compound: C/C(=N\NC(=O)C1=CC(=CC=C1)S(=O)(=O)N2CCOCC2)/C3=C(C=CC(=C3)Cl)O
How it was run: as §1

[2] = compound: C1=CC(=CC=C1C2=NC3=C(N2)C=C(C=C3)C(=O)N)OC4=CC=C(C=C4)Cl
How it was run: as §1

[3] = compound: C1=CC2=C(C=CC(=C2)/C=C\3/C(=O)NC(=NCC4=CC=CS4)S3)N=C1
How it was run: as §1

[4] = compound: C1=CC2=NC=CN=C2C=C1/C=C/3\C(=O)NC(=O)S3
How it was run: as §1

[5] = compound: C1=CC=C(C=C1)C2=NC(=C(N2)C3=CC=NC=C3)C4=CC(=C(C=C4)Cl)O
How it was run: as §1

[6] = compound: C1=CC=C2C(=C1)C3=NNC4=CC=CC(=C43)C2=O
How it was run: as §1

[7] = compound: C1CCN(C1)C(=O)NC2=CC=CC(=C2)NC3=NC=C(C(=N3)NCCC4=CN=CN4)Br
How it was run: as §1

[8] = compound: C1CN(CCC1(CC2=CC=C(C=C2)Cl)N)C3=NC=NC4=C3C=CN4
How it was run: as §1

IRAK-1-4 Inhibitor I = compound: C1COCCN1CCN2C3=CC=CC=C3N=C2NC(=O)C4=CC(=CC=C4)[N+](=O)[O-] [IRAK-1-4 Inhibitor I]
How it was run: as §1

ibrutinib = compound: C=CC(=O)N1CCC[C@@H](n2nc(-c3ccc(Oc4ccccc4)cc3)c3c(N)ncnc32)C1 [ibrutinib]
How it was run: as §1

[9] = compound: CC(=O)c1cnc2ccc(-c3cc(Cl)c(O)c(Cl)c3)nc2c1N[C@H]1CC[C@H](CN(C)C)CC1
How it was run: as §1

ralimetinib = compound: CC(C)(C)Cn1c(N)nc2ccc(-c3[nH]c(C(C)(C)C)nc3-c3ccc(F)cc3)nc21 [ralimetinib]
How it was run: as §1

[10] = compound: CC(C)(O)CC(=O)NCCn1ccc2ncnc(Nc3ccc(Oc4cccc(C(F)(F)F)c4)c(Cl)c3)c21
How it was run: as §1

[11] = compound: CC(C)C1=C2N=C(C=C(N2N=C1)NCC3=CC=CC=C3)NCCCCCCN
How it was run: as §1

[12] = compound: CC1=C(C(CC(=O)N1)C2=CC=C(C=C2)C(F)(F)F)C(=O)NC3=C(C=C4C(=C3)C=NN4)F
How it was run: as §1

[13] = compound: CC1=C(C2=C(C=C1)C(=O)C3=CC=CC=C3N2CCCN)C
How it was run: as §1

[14] = compound: CC1=C(C=C(C=C1)NC(=O)C2=CC(=CC=C2)C(C)(C)C#N)NC3=CC4=C(C=C3)N=CN(C4=O)C
How it was run: as §1

[15] = compound: CC1=C(C=C(C=C1)NC(=O)C2=CC(=CC=C2)N(C)C)NC(=O)C3=CC=C(C=C3)O
How it was run: as §1

[16] = compound: CC1=CC=C(C=C1)SC2=C3C=C(SC3=CN=C2)C(=O)N
How it was run: as §1

Target	log2 fold change (erlotinib)	log2 fold change [1]	log2 fold change [2]	log2 fold change [3]	log2 fold change [4]	log2 fold change [5]	log2 fold change [6]	log2 fold change [7]	log2 fold change [8]	log2 fold change (IRAK-1-4 Inhibitor I)	log2 fold change (ibrutinib)	log2 fold change [9]	log2 fold change (ralimetinib)	log2 fold change [10]	log2 fold change [11]	log2 fold change [12]	log2 fold change [13]	log2 fold change [14]	log2 fold change [15]	log2 fold change [16]
MRPL41 (UniProt Q8IXM3)	inactive: -0.099	inactive: 0.082	inactive: 0.004	inactive: 0.078	inactive: -0.023	inactive: 0.014	inactive: -0.069	inactive: 0.095	inactive: -0.001	inactive: 0.02	inactive: -0.02	inactive: 0.026	inactive: -0.005	inactive: 0	inactive: 0.013	inactive: 0.009	inactive: -0.075	inactive: -0.051	inactive: 0.021	inactive: 0.015
MSN (UniProt P26038)	inactive: -0.015	inactive: 0.045	inactive: 0.006	inactive: -0.019	inactive: -0.032	inactive: -0.007	inactive: 0.014	inactive: 0.014	inactive: 0	inactive: -0.006	inactive: 0.039	inactive: 0.004	inactive: 0.001	inactive: 0.016	inactive: 0.002	inactive: -0.035	inactive: 0.003	inactive: -0.017	inactive: -0.019	inactive: 0.009
MTA1 (UniProt Q13330)	inactive: 0.006	inactive: 0	inactive: 0.013	inactive: 0.017	inactive: -0.036	inactive: 0	inactive: -0.035	inactive: 0.002	inactive: -0.008	inactive: 0.015	inactive: -0.018	inactive: -0.025	inactive: 0.001	inactive: 0.006	inactive: -0.007	inactive: -0.004	inactive: 0	inactive: -0.008	inactive: 0.034	inactive: -0.018
MRPL43 isoform 4 (UniProt Q8N983)	inactive: -0.046	inactive: 0.027	inactive: -0.01	inactive: 0.016	inactive: 0.013	inactive: 0.023	inactive: -0.023	inactive: -0.036	inactive: 0.014	inactive: 0.025	inactive: 0.036	inactive: -0.037	inactive: -0.031	inactive: -0.01	inactive: 0.011	inactive: 0.059	inactive: 0.008	inactive: -0.059	inactive: -0.004	inactive: -0.013
MRPS36 (UniProt P82909)	inactive: -0.024	inactive: -0.081	inactive: 0.053	inactive: -0.007	inactive: -0.049	inactive: 0.01	inactive: -0.036	inactive: -0.034	inactive: 0.007	inactive: 0.029	inactive: 0.029	inactive: 0.046	inactive: -0.073	inactive: -0.027	inactive: -0.014	inactive: 0.002	inactive: -0.035	inactive: 0.052	inactive: 0.01	inactive: -0.042
MSI2 (UniProt Q96DH6)	inactive: -0.04	inactive: -0.277	inactive: 0.035	inactive: -0.047	inactive: 0.084	inactive: -0.034	inactive: -0.011	inactive: 0.03	inactive: 0.027	inactive: 0.057	inactive: 0.044	inactive: -0.024	inactive: 0.032	inactive: -0.039	inactive: 0.015	inactive: -0.029	inactive: 0.009	active: -0.315	inactive: 0.03	inactive: 0.054
MRPS24 (UniProt Q96EL2)	inactive: -0.025	inactive: 0.153	inactive: 0.016	inactive: 0.049	inactive: -0.032	inactive: 0.012	inactive: 0.112	inactive: 0.056	inactive: -0.119	inactive: -0.022	inactive: 0.032	inactive: 0.054	inactive: 0.051	inactive: -0.001	inactive: 0.027	inactive: -0.051	inactive: -0.145	inactive: -0.063	inactive: 0.011	inactive: 0.072
MSH2 (UniProt P43246)	inactive: 0.003	inactive: 0.018	inactive: -0.028	inactive: 0.028	inactive: 0.013	inactive: 0.017	inactive: -0.019	inactive: -0.01	inactive: 0.012	inactive: -0.009	inactive: -0.009	inactive: -0.01	inactive: 0.019	inactive: 0.02	inactive: 0.019	inactive: -0.012	inactive: -0.014	inactive: 0	inactive: 0.037	inactive: 0.019
MRPL38 (UniProt Q96DV4)	inactive: -0.05	inactive: 0.024	inactive: 0.019	inactive: 0.084	inactive: -0.01	inactive: 0.041	inactive: 0.038	inactive: 0.024	inactive: 0.074	inactive: -0.001	inactive: 0.014	inactive: 0.024	inactive: -0.031	inactive: 0.063	inactive: 0.015	inactive: -0.01	inactive: -0.064	inactive: -0.041	inactive: 0.051	inactive: -0.041
MT-ND5 (UniProt P03915)	inactive: 0.046	inactive: -0.053	inactive: -0.009	inactive: -0.002	inactive: 0.188	inactive: -0.058	inactive: -0.101	inactive: -0.016	inactive: 0.059	inactive: 0.039	inactive: -0.075	inactive: 0	inactive: -0.014	inactive: -0.075	inactive: -0.04	inactive: 0.008	inactive: -0.096	inactive: 0.005	inactive: -0.056	inactive: 0.014
MRPS22 (UniProt P82650)	inactive: 0.001	inactive: -0.057	inactive: 0.035	inactive: -0.002	inactive: -0.005	inactive: -0.023	inactive: -0.107	inactive: -0.041	inactive: 0.04	inactive: 0.025	inactive: 0.017	inactive: -0.019	inactive: 0.012	inactive: -0.007	inactive: 0.039	inactive: 0.008	inactive: -0.097	inactive: 0.028	inactive: 0.037	inactive: 0.002
MTCH1 (UniProt Q9NZJ7)	inactive: -0.015	inactive: 0.032	inactive: -0.026	inactive: 0.006	inactive: -0.007	inactive: 0.007	inactive: 0.002	inactive: 0.013	inactive: 0.006	inactive: -0.024	inactive: -0.008	inactive: -0.032	inactive: 0.025	inactive: 0.043	inactive: 0.032	inactive: -0.014	inactive: -0.059	inactive: -0.015	inactive: -0.039	inactive: 0.015
MTCH2 (UniProt Q9Y6C9)	inactive: 0.004	inactive: 0.051	inactive: -0.081	inactive: -0.032	inactive: -0.06	inactive: -0.004	inactive: -0.031	inactive: -0.033	inactive: -0.011	inactive: 0.027	inactive: 0.008	inactive: -0.022	inactive: 0.022	inactive: 0.023	inactive: 0.044	inactive: -0.019	inactive: -0.011	inactive: 0.043	inactive: -0.036	inactive: 0.031
MRS2 (UniProt Q9HD23)	inactive: -0.034	inactive: -0.006	inactive: 0.011	inactive: 0.136	inactive: -0.036	inactive: -0.017	inactive: -0.008	inactive: 0.007	inactive: -0.016	inactive: -0.016	inactive: 0.008	inactive: 0.008	inactive: 0.045	inactive: -0.009	inactive: -0.042	inactive: -0.028	inactive: 0.011	inactive: -0.005	inactive: 0.02	inactive: -0.006
MTHFSD isoform 3 (UniProt Q2M296)	inactive: -0.01	inactive: -0.343	inactive: 0.05	inactive: 0.053	inactive: -0.037	inactive: -0.088	inactive: -0.104	–	–	inactive: -0.004	inactive: -0.047	inactive: -0.013	inactive: 0.069	inactive: 0.042	inactive: 0.095	inactive: -0.055	inactive: -0.15	inactive: -0.203	inactive: 0.037	inactive: -0.041

Another view of some results above.
Target | log2 fold change (erlotinib) | log2 fold change [1] | log2 fold change [2] | log2 fold change [3] | log2 fold change [4] | log2 fold change [5] | log2 fold change [6] | log2 fold change [7] | log2 fold change [8] | log2 fold change (IRAK-1-4 Inhibitor I) | log2 fold change (ibrutinib) | log2 fold change [9] | log2 fold change (ralimetinib) | log2 fold change [10] | log2 fold change [11] | log2 fold change [12] | log2 fold change [13] | log2 fold change [14] | log2 fold change [15] | log2 fold change [16]
MSI2 (UniProt Q96DH6) | inactive: -0.04 | inactive: -0.277 | inactive: 0.035 | inactive: -0.047 | inactive: 0.084 | inactive: -0.034 | inactive: -0.011 | inactive: 0.03 | inactive: 0.027 | inactive: 0.057 | inactive: 0.044 | inactive: -0.024 | inactive: 0.032 | inactive: -0.039 | inactive: 0.015 | inactive: -0.029 | inactive: 0.009 | active: -0.315 | inactive: 0.03 | inactive: 0.054
MRPS24 (UniProt Q96EL2) | inactive: -0.025 | inactive: 0.153 | inactive: 0.016 | inactive: 0.049 | inactive: -0.032 | inactive: 0.012 | inactive: 0.112 | inactive: 0.056 | inactive: -0.119 | inactive: -0.022 | inactive: 0.032 | inactive: 0.054 | inactive: 0.051 | inactive: -0.001 | inactive: 0.027 | inactive: -0.051 | inactive: -0.145 | inactive: -0.063 | inactive: 0.011 | inactive: 0.072
